In patent US20250109209A1:
Results are given in words; binding and its absence hold for the method and conditions named. Some results given as binding are weak or reduced against the parent protein; the word gives no strength.

The chains behind the UniProt entries cited, without tags or fusion partners. Where a name states a change or a piece, a line headed by the entry shows the natural chain unless it says otherwise. A line that says so, or that is headed by a name, gives the form on record, which may keep a tag or linker. Residues count along the entry.
Cyno TL1A (G7PRK8, form named): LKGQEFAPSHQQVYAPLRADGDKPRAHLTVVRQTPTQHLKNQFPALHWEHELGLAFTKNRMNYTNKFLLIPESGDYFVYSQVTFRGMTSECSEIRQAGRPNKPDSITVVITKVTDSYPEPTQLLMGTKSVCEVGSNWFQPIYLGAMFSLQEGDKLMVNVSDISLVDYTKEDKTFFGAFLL
UniProt O95150, residues 72-251: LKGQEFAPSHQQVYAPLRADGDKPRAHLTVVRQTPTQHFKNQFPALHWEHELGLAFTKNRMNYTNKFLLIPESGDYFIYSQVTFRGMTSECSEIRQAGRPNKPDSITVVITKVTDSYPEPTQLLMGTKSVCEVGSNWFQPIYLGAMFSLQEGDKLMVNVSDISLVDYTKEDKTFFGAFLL

Columns and labels:
Cyno TL1A (cyno) = Cyno TL1A (cyno) (UniProt G7PRK8); test: SPR, Fab format
human TL1A (human) = human TL1A (human) (UniProt O95150); test: SPR, Fab format

binding (Cyno TL1A (cyno)): binds
binding (human TL1A (human)): binds
B1: Antibody 81 (Fab format) (Fab, V domains shown)
VH: QVQLQESGPGLVRPSQTLSLTCTVSGFDITDTYMHWVRQRPGRGLEWMGRIEPAGGHTKYNPSLKSRVTITRDTSKNQVSLRLSSVTAADTAVYYCVRSGGLPDVWGQGSLVTVSS
VL: DIQMTQSPSSLSASVGDRVTITCRASQGIYYMYWYQQKPGKAPKLLIYGASNLASGVPSRFSGSGSGTDFTFTISSLQPEDIATYYCQQWEGNPRTFGQGTKVEIK
